Reference: patent US10774111B2, “Opioid peptide” (Embrapa—Empresa Brasileira de Pesquisa Agropecuária, priority 2014, dated 2020)
Not every detail of the peptide structures is certain; ends, links or a residue may be inferred. Some entries share one result that the patent states for a list of compounds. Ends that are not written are not given here.

Experiments:
[1] = system: Swiss mice; experiment: Hot Plate nociception test in mice; assay type: in vivo, Mus musculus; details: i.p. in mice; for effect when naloxone was applied: serial doses of naloxone 4 mg/kg
Method: (§1) In vivo analyzes: Tests were carried out on Swiss mice of the Mus musculus species, in which nociception tests (Hot Plate and Tail Flick) were used according to Le Bars et al. (2001). Injections were administered via intraperitoneal (IP). Doses were based upon dose and molaridade of the morphine (10 mg/kg animal).
To initiate the nociceptive tests and verify the efficiency of the same, a pilot experiment was carried out using the peptide sequence SEQ ID NO: 2 and evaluating the behavior of the animals in the course of two hours.

[2] = system: Swiss mice; experiment: Tail Flick nociception test in mice; assay type: in vivo, Mus musculus; details: i.p. in mice, naloxone 4 mg/kg
Method: as §1

For YGGTAGAHGTY [SEQ ID NO: 6], the “time at which antinociceptive activity initiated after application” value ([1]; FIG. 2, 150 min experiment) was 60 min, the “time up to which antinociceptive activity was seen” value ([1]; FIG. 2, 150 min experiment) was “up to 150 minutes” and the “activity after naloxone was no longer injected” value ([1]; naloxone suspended after 150 minutes, FIG. 3, 240 min) was “activity of peptide sequence SEQ ID: 6 was noted”. For the same sequence, the “effect when naloxone was applied” value [1] was “effect cancelled”, the “effect when naloxone was applied” value ([1]; listed as SED ID NO: 6) was “antagonized” and the “effect when naloxone was applied” value [2] was “inhibition of the effect”.
